According to US20040072738A1, “Analogues of thiocoraline and be-22179” (priority 2000, published 2004):
Not every detail of the peptide structures is certain; ends, links or a residue may be inferred. For part of these data: At least one structure is not confirmed: it was looked up by name or label, or the drawing left a doubt. Some entries share one result that the patent states for a list of compounds. Bridge positions count the residues as written; N and C are the ends. Square brackets hold non-standard residues; d marks the D form. Peptide text beside a SMILES is read from it. I, II: the chains in the order shown. * marks the point of attachment. Quinoxaline2carbonyl = O=C(c1cnc2ccccc2n1)*; Quinaldoyl(3-OH) = O=C(c1nc2ccccc2cc1O)*; Fmoc = O=C(OCC1c2ccccc2-c2ccccc21)*; NMeC = CN[C@@H](CS)C(=O)O; Cbz = O=C(OCc1ccccc1)*; NMeDha = C=C(NC)C(=O)O

What was measured:
L1210 cell line = test: cytotoxic activity in the L1210 assays; conditions: relative to thiocoraline
supercoiled ΦX174 DNA [1] = test: unwinding and rewinding of negatively supercoiled DNA, agarose gel electrophoresis; format: biochemical
Description: Confirmation that thiocoraline and BE-22179 bind to DNA with bisintercalation was derived from their ability to induce the unwinding of negatively supercoiled DNA. This was established by their ability to gradually decrease the agarose gel electrophoresis mobility of supercoiled ΦX174 DNA (unwinding) at increasing concentrations followed by a return to normal mobility (rewinding) at even higher concentrations. Under the conditions employed, echinomycin unwound ΦX174 DNA at a 0.044 agent/base pair ratio (FIG. 11 and FIG. 12). Thiocoraline completely unwound ΦX174 DNA at a higher 0.11 agent/base pair ratio, whereas BE-22179 required even higher concentrations producing the unwinding at an agent/base pair ratio of 1.1. […] Thus, the distinctions in 1 and 2 and echinomycin detected here appear to be related to the nature of the cyclic depsipeptide and not the structure of the chromophore.
FIG. 8 is a table of comparative DNA binding properties. ^aCalf thymus DNA, KB=apparent binding constant determined by fluorescence quenching. The value in paren-theses is the agent/base pair ratio at saturated high-affinity binding and may be considered a measure of the selectivity of binding. ^bAgent/base pair ratio required to unwind negatively supercoiled FX174 DNA (form I to form II gel mobility, 0.9% agarose gel). ^cAgent/base pair ratio required to induce complete rewinding or positive super-coiling of FX174 DNA (form II to form I gel mobility, 0.9% agarose gel). ^dBinding constant established by footprinting at a 5′-CCGC site (FIG. 9).
(A) Lane 1, untreated supercoiled FX174 DNA, 95% form 1 and 5% form II; lanes 2-8, thiocoraline-treated FX174 DNA; lanes 9-14, echinomycin-treated FX174 DNA. The [agent]-to-[base pair] ratios were 0.022 (lanes 2 and 9), 0.033 (lanes 3 and 10), 0.044 (lanes 4 and 11), 0.066 (lanes 5 and 12), 0.11 (lanes 6 and 13), 0.22 (lanes 7 and 14), and 0.44 (lane 8). (B) Lane 1, untreated supercoiled FX174 DNA, lanes 2-12, BE-22179-treated FX174 DNA. The [agent]-to-[base pair] ratios were 0.022, (lane 2), 0.033 (lane 3), 0.044 (lane 4), 0.066 (lane 5), 0.11 (lane 6), 0.22 (lane 7), and 0.33 (lane 8), 0.44 (lane 9), 0.66 (lane 10), 1.1 (lane 11), and 2.2 (lane 12). (C) Lane 1, untreated supercoiled FX174 DNA, 95% form 1 and 5% form II; lanes 2-8, thiocoraline analogue (27)-treated FX174 DNA. The [agent]-to-[base pair] ratios were 0.022 (lane 2), 0.033 (lane 3), 0.044 (lane 4), 0.066 (lane 5), 0.11 (lane 6), 0.22 (lane 7), and 0.44 (lane 8).

supercoiled ΦX174 DNA [2] = test: DNA cleavage assay, conversion of Form I to Form II or Form III; format: biochemical
Description: Also examined was the ability of 1 or 2 to cleave, alkylate, or cross-link DNA. In particular, the electrophilic unsaturation found in BE-22179 might be expected to serve as an alkylation site for covalent attachment to DNA, especially following bisintercalation binding. […] These studies would detect both thermally labile and non thermally labile alkylation sites, but only those engaged in interstrand cross-linking. Given the C2 symmetric nature of 2, bisintercalation analogous to echinomycin and triostin A places the two electrophilic sites in positions to react only with the complementary strands of duplex DNA (interstrand DNA cross-linking) and would preclude intrastrand DNA cross-linking.

w794 DNA [3] = test: DNA interstrand cross-linking assay; format: biochemical
w794 DNA [4] = test: sequencing cleavage studies for DNA alkylation (thermal depurination); format: biochemical; conditions: thermally labile sites

Q: How did the “times less potent than thiocoraline” value (L1210 cell line) turn out when `CSC[C@H]1C(=O)SC[C@@H](NC(=O)OCc2ccccc2)C(=O)NCC(=O)N(C)[C@H]2CSSC[C@@H](C(=O)N1C)N(C)C(=O)CNC(=O)[C@H](NC(=O)OCc1ccccc1)CSC(=O)[C@H](CSC)N(C)C2=O` [Compound 23, [N-Cbz-D-Cys-Gly-NMe-L--Cys-NMe-L--Cys(Me)]2 (Cysteine Thiol) Dilactone] (I: Cbz-[dC]G[NMeC][NMeC](Me) / II: Cbz-[dC]G[NMeC][NMeC](Me); thioester I:1-II:C, I:C-II:1; disulfide I:3-II:3) was run?
A: > 10^5 times

Q: Which “unwinding of supercoiled DNA (in words)” value (supercoiled ΦX174 DNA [1]) does the source give for `CC[n+]1c(-c2ccccc2)c2cc(N)ccc2c2ccc(N)cc21` [ethidium bromide, reference compound] here?
A: does not unwind supercoiled DNA

Q: For `CSC[C@H]1C(=O)SC[C@@H](NC(=O)c2cnc3ccccc3n2)C(=O)NCC(=O)N(C)[C@H]2CSSC[C@@H](C(=O)N1C)N(C)C(=O)CNC(=O)[C@H](NC(=O)c1cnc3ccccc3n1)CSC(=O)[C@H](CSC)N(C)C2=O` [Compound 27, [N-(2-Quinoxaline carboxyl)-D-Cys-Gly-NMe-L--Cys-NMe-L--CYS(Me)]2 (Cysteine Thiol) Dilactone] (I: Quinoxaline2carbonyl-[dC]G[NMeC][NMeC](Me) / II: Quinoxaline2carbonyl-[dC]G[NMeC][NMeC](Me); thioester I:1-II:C, I:C-II:1; disulfide I:3-II:3), which “unwinding of supercoiled DNA (in words)” value (supercoiled ΦX174 DNA [1]) is on record?
A: indistinguishable from thiocoraline itself

Q: Which “times less potent than thiocoraline” value (L1210 cell line) does the source give for `CSC[C@H]1C(=O)SC[C@@H](NC(=O)OCC2c3ccccc3-c3ccccc32)C(=O)NCC(=O)N(C)[C@H]2CSSC[C@@H](C(=O)N1C)N(C)C(=O)CNC(=O)[C@H](NC(=O)OCC1c3ccccc3-c3ccccc31)CSC(=O)[C@H](CSC)N(C)C2=O` [Compound 32] (I: Fmoc-[dC]G[NMeC][NMeC](Me) / II: Fmoc-[dC]G[NMeC][NMeC](Me); thioester I:1-II:C, I:C-II:1; disulfide I:3-II:3) here?
A: > 10^5 times

Q: Which results are given for `C=C1C(=O)SC[C@@H](NC(=O)c2nc3ccccc3cc2O)C(=O)NCC(=O)N(C)[C@H]2CSSC[C@@H](C(=O)N1C)N(C)C(=O)CNC(=O)[C@H](NC(=O)c1nc3ccccc3cc1O)CSC(=O)C(=C)N(C)C2=O` [BE-22179] (I: {Quinaldoyl(3-OH)}-[dC]G[NMeC][NMeDha] / II: {Quinaldoyl(3-OH)}-[dC]G[NMeC][NMeDha]; thioester I:1-II:C, I:C-II:1; disulfide I:3-II:3)?
A: DNA cleavage (supercoiled ΦX174 DNA [2]): No evidence; DNA interstrand cross-linking (w794 DNA [3]): no evidence of DNA interstrand cross-linking; DNA alkylation at adenine N3 or N7 or guanine N3 or N7 (w794 DNA [4]): did not reveal alkylation; agent/base pair ratio required to unwind supercoiled DNA (supercoiled ΦX174 DNA [1]; form I to form II gel mobility): 1.1 agent/base pair ratio; agent/base pair ratio for complete rewinding of supercoiled DNA (supercoiled ΦX174 DNA [1]; form II to form I gel mobility): failed to produce the rewinding
